{"source": "patent US20100056493A1", "about": "“MODIFIED RELEASE PHARMACEUTICAL COMPOSITION AND A PROCESS OF MAKING THE SAME” (priority 2007, published 2010)", "origin": "cited, not measured here", "test_system": "de novo kidney allograft recipients", "conditions": "at 6 months; 720 mg mycophenolic acid as mycophenolate sodium twice daily (n=213) or 1000 mg MMF twice daily (n=210); P=NS", "note": "At least one compound was matched to its structure with a doubt left.", "data": [{"smiles": "COc1c(C)c2c(c(O)c1C/C=C(\\C)CCC(=O)O)C(=O)OC2", "note": "[mycophenolate sodium]", "values": [{"measurement": "overall incidence of efficacy failure (biopsy-proven acute rejection, graft loss, death, or loss to follow-up)", "result": 28.2, "unit": "%"}]}]}
